Here are results for one substance from article PMC8639830.

Sequences of proteins named here, by UniProt entry; tags and fusion partners are left off.
UniProt P37231: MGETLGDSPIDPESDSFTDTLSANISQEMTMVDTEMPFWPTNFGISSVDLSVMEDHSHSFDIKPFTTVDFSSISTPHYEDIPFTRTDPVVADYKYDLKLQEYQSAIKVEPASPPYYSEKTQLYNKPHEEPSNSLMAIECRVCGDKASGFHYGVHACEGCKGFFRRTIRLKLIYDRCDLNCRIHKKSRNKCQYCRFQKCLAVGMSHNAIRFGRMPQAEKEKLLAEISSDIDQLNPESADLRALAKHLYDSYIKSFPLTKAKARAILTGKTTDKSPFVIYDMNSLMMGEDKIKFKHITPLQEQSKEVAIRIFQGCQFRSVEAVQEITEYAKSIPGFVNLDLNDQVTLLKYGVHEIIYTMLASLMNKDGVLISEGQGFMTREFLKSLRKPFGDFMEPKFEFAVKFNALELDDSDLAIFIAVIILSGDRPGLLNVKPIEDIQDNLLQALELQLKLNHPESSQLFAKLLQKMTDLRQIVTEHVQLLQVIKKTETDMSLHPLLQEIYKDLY
UniProt O75925: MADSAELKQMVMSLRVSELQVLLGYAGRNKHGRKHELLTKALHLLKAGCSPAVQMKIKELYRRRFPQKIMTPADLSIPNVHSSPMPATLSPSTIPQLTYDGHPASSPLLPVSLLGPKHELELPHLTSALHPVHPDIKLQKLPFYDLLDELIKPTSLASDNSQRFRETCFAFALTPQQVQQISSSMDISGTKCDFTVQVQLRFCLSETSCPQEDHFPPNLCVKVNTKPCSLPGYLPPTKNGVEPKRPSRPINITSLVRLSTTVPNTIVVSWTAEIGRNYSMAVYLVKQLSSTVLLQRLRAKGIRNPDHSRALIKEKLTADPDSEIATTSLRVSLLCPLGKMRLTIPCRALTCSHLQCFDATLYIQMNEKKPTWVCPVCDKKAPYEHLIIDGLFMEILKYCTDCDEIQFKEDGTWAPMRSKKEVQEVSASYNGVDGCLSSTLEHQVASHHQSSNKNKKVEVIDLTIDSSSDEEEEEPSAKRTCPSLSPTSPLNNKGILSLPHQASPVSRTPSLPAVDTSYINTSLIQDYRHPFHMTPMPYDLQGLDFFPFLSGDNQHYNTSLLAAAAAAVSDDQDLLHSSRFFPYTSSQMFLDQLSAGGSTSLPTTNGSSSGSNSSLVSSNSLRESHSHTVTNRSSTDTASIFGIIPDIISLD

Results are given in words; binding and its absence hold for the method and conditions named. Binding seen in cells or lysates may run through a third protein. Some binding calls cover weakened binding; strength is not graded here.

The target of the assay is Peroxisome proliferator-activated receptor γ (PPAR-γ) (UniProt P37231). The assay is described as follows: co-IP; SC4 cells transfected with PIAS1 and PPAR-γ plasmids; lysed in IP lysis buffer with protease inhibitor; lysate with antibodies against Flag, HA or IgG and protein A Sepharose overnight at 4 °C; beads rinsed three times; western blot for PIAS1 and PPAR-γ. Background: A western blot detects proteins with antibodies after separation by electrophoresis.

With “Protein inhibitor of activated STAT1 (PIAS1) (from UniProt O75925 1-651)”, the binding entry is “binds”.
